PMC10946275, “New imidazole-2-thiones linked to acenaphythylenone as dual DNA intercalators and topoisomerase II inhibitors: structural optimization, docking, and apoptosis studies” (Journal of Enzyme Inhibition and Medicinal Chemistry, 2024)

tested on: calf thymus DNA (ctDNA); assay: Terbium (Tb3+) luminescent biosensor detection of induced DNA damage; assay type: biochemical; conditions: Tb luminescence vs compound concentration, ctDNA, 24 h incubation
Excerpt: Luminescence studies were accomplished in order to examine the possible DNA interaction with the studied compounds. Many luminescent biosensors are reported in literature for studying the possibility of DNA interaction with small molecules. […] Figure 5 presents a schematic diagram for the fluorometric detection of the induced DNA damage using Tb biosensor. Tb^3+ ion in the Tb luminescent probe is a trivalent lanthanide cation having low intrinsic luminescence in aqueous solutions[45]^,[46]. When Tb biosensor is added to a solution of DNA, it interacts differently with double-stranded DNA (dsDNA) and single-stranded DNA (ssDNA). With dsDNA, Tb^3+ ions are electrostatically attracted to the negatively charged phosphate backbone of the DNA. […] Therefore, the assessed compound damages dsDNA, ssDNA sites would be formed opposite to the site of damage and Tb^3+ would directly coordinate to the unpaired nucleobases in this single-stranded site.
For investigating the DNA interaction potential of the fourteen studied compounds, calf thymus DNA (ctDNA) was incubated with each compound for 24 h and then Tb was added to each mixture. Doxorubicin (DOX), a commonly used reference for DNA damaging agent was used and treated the same condition as the studied compounds. Tb luminescent intensity was measured at λmax = 545 nm after excitation at λmax = 270 nm.
Several concentrations within the range of 0.1 pM–200.0 μM of each of the studied compounds were incubated with ctDNA for 24 h. After which, Tb solution was added to aliquots of such mixtures and the luminescence intensity was recorded. Figure 7 presents Tb luminescence intensity as a function of the compound concentration for various compound/ctDNA/Tb mixtures. At minimum concentration of the studied compounds, minimum Tb luminescence was recorded. This reflects that the DNA molecule is undamaged, intact and acquiring a double helical structure. In this conformation, Tb ions are electrostatically attracted to the negatively charged DNA-phosphate backbone showing no increase in its luminescence. For solutions with higher concentrations of compounds 5b, 5h, and 5j (Figure 7a,c,and d). Tb fluorescence increased proportionally with the concentration until a concentration of 100 and 60 μM for compounds 5b, 5h, and 5j, respectively, where no further increase in the fluorescence occurs. This reflects that more DNA damage is induced with increasing concentrations of the three compounds. At concentrations higher than 100 and 60 μM for compounds 5b, 5h, and 5j, respectively, Tb luminescence remains constant at high fluorescence levels. […] Table 1 illustrates the analytical parameters elucidated as shown in Figure 7 for the quantification of the induced DNA damage by the studied compounds. The linearity parameters were calculated from the calibration curve in Figure 7-inset in order to obtain the minimum concentration of the studied compounds that would induce DNA damage.
Fluorescence measurements: Fluorescence spectra were measured between 290 and 800 nm with excitation at 270 nm of 100 µL solutions in a 1 cm path length Suprasil quartz fluorescence cuvette.
The PerkinElmer LS 55 fluorescence spectrophotometer was used to measure the fluorescence. After 24 h of incubation in buffer solution (40 mM Tris, 10 mM NaCl, pH 7.5), aliquots of each DNA-Compound mixture were combined with TbCl3 to confirm DNA damage. The final concentrations were […] ctDNA, 3 mM TbCl3, and 50 µM of each compound in buffer solution (40 mM Tris, 10 mM NaCl, pH 7.5). Calf thymus DNA (ctDNA) was combined with various quantities of each substance, ranging from 0.1 pM to 200 µM, for the experiment. The ultimate concentrations of […] ctDNA and 3 mM were achieved by adding Tb3 + solution to the ctDNA/compound combinations in buffer solution (40 mM Tris, 10 mM NaCl, pH 7.5) after 24 h of incubation.[44]
All chemicals, solvents, media and kits were purchased from commercial suppliers. […]

| Compound | Linear dynamic range [µM] |
| --- | --- |
| COc1cccc(-n2c(-c3ccccc3)cn(N=C3C(=O)c4cccc5cccc3c45)c2=S)c1 [5e, 2-((3-(3-Methoxyphenyl)-4-phenyl-2-thioxo-2,3-dihydro-1H-imidazol-1-yl)imino)-acenaphthylen-1(2H)-one] | 20.0 to 80.0 |

same assay, conditions: linear region of Tb luminescence vs concentration plot

| Compound | Slope (b) |
| --- | --- |
| COc1cccc2c1C(=O)c1c(O)c3c(c(O)c1C2=O)C[C@@](O)(C(=O)CO)C[C@@H]3O[C@H]1C[C@H](N)[C@H](O)[C@H](C)O1 [doxorubicin, reference compound] | 8923.2 |
| COc1cccc(-n2c(-c3ccc(Cl)cc3)cn(N=C3C(=O)c4cccc5cccc3c45)c2=S)c1 [5j, 2-((4-(4-Chlorophenyl)-3-(3-methoxyphenyl)-2-thioxo-2,3-dihydro-1H-imidazol-1-yl)-imino)acenaphthylen-1(2H)-one] | 8124.2 |
| O=C1C(=Nn2cc(-c3ccccc3)n(-c3ccccc3)c2=S)c2cccc3cccc1c23 [5b, 2-((3,4-Diphenyl-2-thioxo-2,3-dihydro-1H-imidazol-1-yl)imino)acenaphthylen-1(2H)-one] | 13283 |
| COc1cccc(-n2c(-c3ccccc3)cn(N=C3C(=O)c4cccc5cccc3c45)c2=S)c1 [5e, 2-((3-(3-Methoxyphenyl)-4-phenyl-2-thioxo-2,3-dihydro-1H-imidazol-1-yl)imino)-acenaphthylen-1(2H)-one] | 7580 |
| O=C1C(=Nn2cc(-c3ccc(Cl)cc3)n(-c3ccccc3)c2=S)c2cccc3cccc1c23 [5h, 2-((4-(4-chlorophenyl)-3-phenyl-2-thioxo-2,3-dihydro-1H-imidazol-1-yl)imino)-acenaphthylen-1(2H)-one] | 13306 |
